No constants are given. Whether binding was seen depends on the method and setting. Binding seen in cells or lysates may run through a third protein. Some results given as binding are weak or reduced against the parent protein; the word gives no strength.
Key:
[1] = molecular target: JARID1A (human (endogenous in K562)) (UniProt P29375); test: co-IP; total (whole) cell extracts of K562 RepID WT and KO cells; IP with 3 µg anti-CUL4A or anti-JARID1A, 14 h at 4 °C, Sepharose beads 2 h, washed three times with PBS; immunoblot; also after PMA for 48 h
[2] = molecular target: CUL4A (human (endogenous in K562)) (UniProt Q13619); test: as above

Protein sequences, listed by entry. Tags and fused reporters are not part of them.
UniProt P29375: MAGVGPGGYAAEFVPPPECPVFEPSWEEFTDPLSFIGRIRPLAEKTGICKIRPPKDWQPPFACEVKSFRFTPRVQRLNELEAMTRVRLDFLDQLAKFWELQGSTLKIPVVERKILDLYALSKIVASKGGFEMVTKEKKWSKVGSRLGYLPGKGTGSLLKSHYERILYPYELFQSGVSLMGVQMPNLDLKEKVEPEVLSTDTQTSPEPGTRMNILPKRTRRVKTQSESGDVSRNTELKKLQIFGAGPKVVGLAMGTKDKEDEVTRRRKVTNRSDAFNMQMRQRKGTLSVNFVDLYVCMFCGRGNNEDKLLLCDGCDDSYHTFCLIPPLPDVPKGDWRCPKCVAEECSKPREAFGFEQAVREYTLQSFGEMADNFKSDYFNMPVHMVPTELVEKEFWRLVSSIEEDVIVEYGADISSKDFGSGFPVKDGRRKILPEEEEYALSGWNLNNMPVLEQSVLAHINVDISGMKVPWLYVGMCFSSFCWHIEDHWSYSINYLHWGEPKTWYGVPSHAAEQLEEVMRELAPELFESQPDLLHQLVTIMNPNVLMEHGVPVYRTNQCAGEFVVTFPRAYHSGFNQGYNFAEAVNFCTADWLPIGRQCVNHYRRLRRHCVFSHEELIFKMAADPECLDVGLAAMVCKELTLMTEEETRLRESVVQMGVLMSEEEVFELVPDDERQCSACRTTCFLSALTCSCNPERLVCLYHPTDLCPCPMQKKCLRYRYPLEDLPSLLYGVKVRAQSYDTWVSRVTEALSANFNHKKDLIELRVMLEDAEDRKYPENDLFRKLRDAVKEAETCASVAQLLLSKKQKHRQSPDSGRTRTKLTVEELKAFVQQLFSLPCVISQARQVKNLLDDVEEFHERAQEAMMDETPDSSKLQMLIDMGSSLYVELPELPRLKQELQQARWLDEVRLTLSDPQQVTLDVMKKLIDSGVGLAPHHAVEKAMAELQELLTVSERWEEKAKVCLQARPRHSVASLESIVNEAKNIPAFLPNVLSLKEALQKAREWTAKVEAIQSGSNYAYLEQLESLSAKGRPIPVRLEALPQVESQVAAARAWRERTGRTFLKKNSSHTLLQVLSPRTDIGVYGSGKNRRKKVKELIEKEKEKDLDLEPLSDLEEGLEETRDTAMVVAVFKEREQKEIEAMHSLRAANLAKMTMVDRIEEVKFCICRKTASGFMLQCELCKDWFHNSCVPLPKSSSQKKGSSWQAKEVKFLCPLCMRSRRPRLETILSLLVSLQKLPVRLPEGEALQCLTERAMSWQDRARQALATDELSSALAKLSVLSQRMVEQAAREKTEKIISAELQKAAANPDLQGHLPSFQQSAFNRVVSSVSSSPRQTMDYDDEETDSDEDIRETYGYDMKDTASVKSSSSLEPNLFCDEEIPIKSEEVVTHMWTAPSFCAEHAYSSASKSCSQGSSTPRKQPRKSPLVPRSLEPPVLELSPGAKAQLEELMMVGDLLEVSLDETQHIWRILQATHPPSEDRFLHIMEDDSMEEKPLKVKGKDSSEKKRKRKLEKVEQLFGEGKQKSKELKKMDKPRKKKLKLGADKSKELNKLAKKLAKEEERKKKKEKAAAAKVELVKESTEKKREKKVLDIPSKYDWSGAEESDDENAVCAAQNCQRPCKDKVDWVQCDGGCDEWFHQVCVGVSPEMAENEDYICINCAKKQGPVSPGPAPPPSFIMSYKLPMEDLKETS

| binding [1] | binding [2] | Substance |
| --- | --- | --- |
| binds | – | CUL4A (from UniProt Q13619 1-759) |
| – | binds | Replication initiation determinant protein (RepID) (from UniProt Q8WWQ0 1-1821) |
